The target in test [1] is T1, endogenous SET8 (N-lysine methyltransferase 5A) (human (endogenous in HEK293T)) (UniProt Q9NQR1).
T1 sequence: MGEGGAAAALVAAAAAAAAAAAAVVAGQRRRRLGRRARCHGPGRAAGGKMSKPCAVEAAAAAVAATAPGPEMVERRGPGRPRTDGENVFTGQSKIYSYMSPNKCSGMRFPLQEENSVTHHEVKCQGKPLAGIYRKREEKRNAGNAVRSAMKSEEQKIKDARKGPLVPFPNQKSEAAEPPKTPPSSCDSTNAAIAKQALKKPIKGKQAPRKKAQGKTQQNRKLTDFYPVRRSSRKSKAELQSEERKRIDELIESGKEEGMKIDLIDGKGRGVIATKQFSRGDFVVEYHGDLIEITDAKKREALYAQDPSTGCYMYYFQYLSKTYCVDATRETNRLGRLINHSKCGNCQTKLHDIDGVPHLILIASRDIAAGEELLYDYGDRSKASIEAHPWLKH
Nature of the test: co-IP; 1 mg total HEK293T cellular extract with 5 μg anti-SET8 antibody (Active Motif or Millipore), normal IgG as control, immunoblot; endogenous proteins; also from cells treated with FQI1 (less tubulin co-precipitated, Fig. S4C). (In general: In western blotting, separated proteins are transferred to a membrane and probed.)

Test [2] deals with T2, endogenous LSF (human (endogenous in HEK293T)) (UniProt Q12800).
T2 sequence: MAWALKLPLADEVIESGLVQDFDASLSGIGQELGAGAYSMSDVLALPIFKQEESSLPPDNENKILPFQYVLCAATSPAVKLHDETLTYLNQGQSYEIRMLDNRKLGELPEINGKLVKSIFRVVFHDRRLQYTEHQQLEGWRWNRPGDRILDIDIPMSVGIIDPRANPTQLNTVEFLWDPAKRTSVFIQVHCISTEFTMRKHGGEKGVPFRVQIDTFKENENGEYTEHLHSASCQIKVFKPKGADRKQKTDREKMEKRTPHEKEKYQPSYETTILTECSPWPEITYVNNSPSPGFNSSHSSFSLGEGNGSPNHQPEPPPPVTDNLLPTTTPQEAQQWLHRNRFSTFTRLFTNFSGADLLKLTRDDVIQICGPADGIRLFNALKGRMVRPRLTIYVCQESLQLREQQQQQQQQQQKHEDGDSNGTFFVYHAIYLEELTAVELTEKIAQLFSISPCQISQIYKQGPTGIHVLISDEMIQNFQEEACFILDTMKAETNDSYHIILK
Nature of the test: co-IP; HEK293T cell lysates with anti-LSF antibody (Millipore 17-10252) against control IgG, immunoblot; endogenous proteins; also from cells treated with vehicle or 2.5 μM FQI1 for 24 h (α-tubulin co-precipitate reduced).

Another test deals with T3, GST-LSF, full length (UniProt Q12800).
T3 sequence: T2 sequence
Nature of the test: pull-down; GST pull-down: about 10 μg GST fusion protein on GSH-Sepharose beads, incubated 2 h at 4 °C with purified tubulin or purified His-LSF; immunoblot; both purified.

Test [3] concerns the target GST fused to the N-terminal portion of SET8 (human). Described as above.

No constants are given. Whether binding was seen depends on the method and setting. Binding can be weak; no strength is given. For some of these results: Tags and fused reporters may be left off the sequences shown. For some of these results: Binding seen in cells or lysates may run through a third protein.

As for “endogenous α-tubulin (human (endogenous in HEK293T))”, the binding result in test [1] and in test [2] was “binds” in each case.

As for “β-tubulin of purified porcine brain tubulin”, the binding entry in the test with GST-LSF, full length is listed as “binds weakly”.

B1: His-tagged LSF (protein, UniProt Q12800 1-502)
chain: T2 sequence
Turning to B1, the binding entry in test [3] is recorded as “binds”.

These data come from PMC7135998.
